Results published in PMC6173057.
Results are given in words; binding and its absence hold for the method and conditions named. Some binding calls cover weakened binding; strength is not graded here. Tags and fused reporters may be left off the sequences shown.

Target: T1, HA-NL1-His (recombinant mouse neuroligin-1 ectodomain) (mouse), Q99K10
T1 chain: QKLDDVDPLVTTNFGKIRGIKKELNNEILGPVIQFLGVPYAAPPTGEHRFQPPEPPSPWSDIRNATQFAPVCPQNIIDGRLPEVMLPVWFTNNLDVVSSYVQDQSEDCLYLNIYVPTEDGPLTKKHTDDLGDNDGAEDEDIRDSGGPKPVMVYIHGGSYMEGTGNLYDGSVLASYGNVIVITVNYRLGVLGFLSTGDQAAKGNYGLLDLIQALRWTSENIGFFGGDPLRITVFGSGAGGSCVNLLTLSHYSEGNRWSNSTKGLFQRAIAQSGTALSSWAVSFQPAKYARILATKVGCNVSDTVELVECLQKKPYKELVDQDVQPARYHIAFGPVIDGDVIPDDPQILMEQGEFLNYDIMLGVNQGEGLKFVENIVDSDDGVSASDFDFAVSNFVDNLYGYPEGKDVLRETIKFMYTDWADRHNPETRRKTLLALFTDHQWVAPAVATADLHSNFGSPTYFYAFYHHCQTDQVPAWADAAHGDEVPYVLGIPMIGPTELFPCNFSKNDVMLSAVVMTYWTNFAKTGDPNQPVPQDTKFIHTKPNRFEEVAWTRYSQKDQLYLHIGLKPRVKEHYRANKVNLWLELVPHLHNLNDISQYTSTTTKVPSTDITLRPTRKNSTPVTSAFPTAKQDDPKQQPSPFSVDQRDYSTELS
Assay: cross-linking; purified recombinant HA-tagged NL1 ectodomains treated with 0.5 mM BS3 for the indicated times; dimerization; both purified
Conditions: remark: other sources report otherwise

B1: HA-NL1-His (recombinant mouse neuroligin-1 ectodomain), Q99K10 46-697 (domain or fragment)
chain: QKLDDVDPLVTTNFGKIRGIKKELNNEILGPVIQFLGVPYAAPPTGEHRFQPPEPPSPWSDIRNATQFAPVCPQNIIDGRLPEVMLPVWFTNNLDVVSSYVQDQSEDCLYLNIYVPTEDGPLTKKHTDDLGDNDGAEDEDIRDSGGPKPVMVYIHGGSYMEGTGNLYDGSVLASYGNVIVITVNYRLGVLGFLSTGDQAAKGNYGLLDLIQALRWTSENIGFFGGDPLRITVFGSGAGGSCVNLLTLSHYSEGNRWSNSTKGLFQRAIAQSGTALSSWAVSFQPAKYARILATKVGCNVSDTVELVECLQKKPYKELVDQDVQPARYHIAFGPVIDGDVIPDDPQILMEQGEFLNYDIMLGVNQGEGLKFVENIVDSDDGVSASDFDFAVSNFVDNLYGYPEGKDVLRETIKFMYTDWADRHNPETRRKTLLALFTDHQWVAPAVATADLHSNFGSPTYFYAFYHHCQTDQVPAWADAAHGDEVPYVLGIPMIGPTELFPCNFSKNDVMLSAVVMTYWTNFAKTGDPNQPVPQDTKFIHTKPNRFEEVAWTRYSQKDQLYLHIGLKPRVKEHYRANKVNLWLELVPHLHNLNDISQYTSTTTKVPSTDITLRPTRKNSTPVTSAFPTAKQDDPKQQPSPFSVDQRDYSTELS
binding: binds
